Source: paper PMC6831851
These are yes or no findings as the source states them, for the method shown. Binding seen in cells or lysates may run through a third protein. Some results given as binding are weak or reduced against the parent protein; the word gives no strength.

Chains of the proteins cited; added tags and fusions are not shown. Residues count along the entry.
UniProt Q9BXM7, residues 78-581: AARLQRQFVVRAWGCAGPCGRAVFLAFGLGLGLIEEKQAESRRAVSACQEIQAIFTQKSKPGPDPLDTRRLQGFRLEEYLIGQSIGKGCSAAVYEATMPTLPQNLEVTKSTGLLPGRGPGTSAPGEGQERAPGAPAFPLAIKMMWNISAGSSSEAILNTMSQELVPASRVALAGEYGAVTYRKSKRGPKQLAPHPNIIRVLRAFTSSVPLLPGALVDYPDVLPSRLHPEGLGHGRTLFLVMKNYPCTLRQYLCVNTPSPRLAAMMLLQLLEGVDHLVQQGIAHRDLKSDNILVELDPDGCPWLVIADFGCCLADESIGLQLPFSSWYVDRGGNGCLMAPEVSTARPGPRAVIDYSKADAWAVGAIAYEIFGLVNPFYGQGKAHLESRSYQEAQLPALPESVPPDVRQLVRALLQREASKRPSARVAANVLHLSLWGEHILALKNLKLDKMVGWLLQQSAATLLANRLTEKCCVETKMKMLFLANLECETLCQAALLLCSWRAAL
UniProt Q99MQ3: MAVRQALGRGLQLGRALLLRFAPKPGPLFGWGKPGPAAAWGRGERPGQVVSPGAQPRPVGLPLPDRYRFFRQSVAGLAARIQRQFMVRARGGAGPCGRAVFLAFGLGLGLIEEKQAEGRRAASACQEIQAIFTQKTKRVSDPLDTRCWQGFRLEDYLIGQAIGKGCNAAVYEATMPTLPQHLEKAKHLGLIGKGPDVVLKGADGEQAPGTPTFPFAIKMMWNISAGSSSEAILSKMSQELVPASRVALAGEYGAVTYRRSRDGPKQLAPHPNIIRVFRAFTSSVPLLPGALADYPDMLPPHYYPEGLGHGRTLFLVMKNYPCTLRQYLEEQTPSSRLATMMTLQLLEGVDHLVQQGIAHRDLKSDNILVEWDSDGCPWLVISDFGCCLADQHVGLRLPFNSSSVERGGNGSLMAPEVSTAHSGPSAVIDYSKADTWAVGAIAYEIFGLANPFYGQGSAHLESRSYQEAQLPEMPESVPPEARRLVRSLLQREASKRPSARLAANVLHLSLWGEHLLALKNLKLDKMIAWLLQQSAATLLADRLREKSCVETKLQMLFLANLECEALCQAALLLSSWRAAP
UniProt P28331, residues 24-727: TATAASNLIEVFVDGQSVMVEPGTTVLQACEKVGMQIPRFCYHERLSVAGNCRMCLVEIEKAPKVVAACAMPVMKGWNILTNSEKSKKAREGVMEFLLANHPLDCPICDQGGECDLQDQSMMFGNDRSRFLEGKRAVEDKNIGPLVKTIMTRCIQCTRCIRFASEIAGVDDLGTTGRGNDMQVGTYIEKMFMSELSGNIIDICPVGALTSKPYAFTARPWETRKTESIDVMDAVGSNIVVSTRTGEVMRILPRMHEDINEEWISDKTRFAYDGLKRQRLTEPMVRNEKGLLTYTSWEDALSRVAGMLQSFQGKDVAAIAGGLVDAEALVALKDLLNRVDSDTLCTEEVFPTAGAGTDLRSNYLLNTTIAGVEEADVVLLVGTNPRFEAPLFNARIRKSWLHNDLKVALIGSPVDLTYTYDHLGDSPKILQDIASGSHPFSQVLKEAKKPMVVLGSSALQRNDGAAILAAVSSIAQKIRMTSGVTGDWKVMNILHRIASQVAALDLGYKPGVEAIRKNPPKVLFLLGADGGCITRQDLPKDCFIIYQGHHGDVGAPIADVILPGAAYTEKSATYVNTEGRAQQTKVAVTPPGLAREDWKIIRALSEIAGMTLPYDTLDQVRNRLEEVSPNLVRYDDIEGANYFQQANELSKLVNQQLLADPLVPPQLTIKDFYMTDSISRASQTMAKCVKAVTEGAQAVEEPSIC
UniProt Q9UMX5, residues 32-172: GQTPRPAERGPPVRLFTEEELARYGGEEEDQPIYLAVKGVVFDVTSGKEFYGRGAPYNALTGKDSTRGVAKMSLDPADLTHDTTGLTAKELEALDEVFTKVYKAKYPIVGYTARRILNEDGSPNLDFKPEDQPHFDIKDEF
UniProt Q9CQ45, residues 31-171: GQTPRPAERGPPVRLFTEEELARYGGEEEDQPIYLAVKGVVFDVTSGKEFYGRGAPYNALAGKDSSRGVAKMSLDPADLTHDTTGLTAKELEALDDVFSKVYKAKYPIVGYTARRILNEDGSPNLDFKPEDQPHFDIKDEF

What was measured:
[1] = biological target: T1, TOMM40 (human (endogenous in NTera2 and in skin fibroblasts)) (UniProt O96008); test: co-IP; fibroblasts of a healthy individual and of CI-deficient subjects with NDUF mutations; immunoblotted with anti-NDUFS1 or V1 antibody, band intensities normalized to GAPDH or healthy fibroblast input
T1 sequence: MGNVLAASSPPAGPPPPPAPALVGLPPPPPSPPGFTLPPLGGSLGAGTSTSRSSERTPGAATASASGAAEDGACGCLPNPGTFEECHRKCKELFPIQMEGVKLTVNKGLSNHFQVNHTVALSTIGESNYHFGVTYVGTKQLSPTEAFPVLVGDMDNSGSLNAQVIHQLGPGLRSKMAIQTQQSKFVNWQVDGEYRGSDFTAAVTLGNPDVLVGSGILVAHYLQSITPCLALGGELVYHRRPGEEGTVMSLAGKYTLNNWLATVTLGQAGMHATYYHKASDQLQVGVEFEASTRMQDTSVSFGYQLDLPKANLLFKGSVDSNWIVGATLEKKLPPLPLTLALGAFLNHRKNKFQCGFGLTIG

[2] = biological target: PINK1 (PTEN-induced putative kinase 1) (human (endogenous in NTera2 and in fibroblasts)) (UniProt Q9BXM7); test: co-IP; PINK1 and DJ-1 immunoprecipitates (anti-PINK1, anti-DJ-1) in whole-cell extract and mt, ER and MAM lysates from ECSCs, DNLCs and mouse brain, immunoblotted with anti-NENF
[3] = biological target: DJ-1 (human (endogenous in NTera2 and in fibroblasts)) (UniProt Q99497); test: as above
[4] = biological target: DJ-1 WT fused with FLAG (human) (UniProt Q99497); test: co-IP; anti-FLAG immunoprecipitates of DJ-1 WT or mutants fused with FLAG in DJ-1 KO DNLCs, immunoblotted with anti-NENF or FLAG
[5] = biological target: T2, DJ-1 (mouse brain) (mouse (endogenous in brain)) (UniProt Q99LX0); test: co-IP; PINK1 and DJ-1 immunoprecipitates (anti-PINK1, anti-DJ-1) in whole-cell extract and mt, ER and MAM lysates from ECSCs, DNLCs and mouse brain, immunoblotted with anti-NENF
T2 sequence: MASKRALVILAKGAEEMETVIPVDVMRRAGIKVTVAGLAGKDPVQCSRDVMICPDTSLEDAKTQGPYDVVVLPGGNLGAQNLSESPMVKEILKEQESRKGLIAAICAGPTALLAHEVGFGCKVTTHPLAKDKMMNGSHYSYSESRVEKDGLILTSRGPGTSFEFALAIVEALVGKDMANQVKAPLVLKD

[6] = biological target: PINK1 (mouse brain) (mouse (endogenous in brain)) (UniProt Q99MQ3); test: as above

NDUFS1 (from UniProt P28331 24-727)
binding [1]: binds

neuron-derived neurotrophic factor (NENF) (from UniProt Q9UMX5 32-172)
binding [2]: binds
binding [3]: binds
binding [4]: binds

NENF (mouse brain) (from UniProt Q9CQ45 31-171)
binding [5]: binds
binding [6]: binds
